Measurements taken from paper PMC12193022.
These are yes or no findings as the source states them, for the method shown. Binding seen in cells or lysates may run through a third protein. A yes stands for co-enrichment or nearness to the bait. Other partners may have been found.

B1: 14-3-3I (PF3D7_0818200) (protein, UniProt C0H4V6 1-262)
chain: MATSEELKQLRCDCTYRSKLAEQAERYDEMADAMRTLVEQCVNNDKDELTVEERNLLSVAYKNAVGARRASWRIISSVEQKEMSKANVHNKNVAATYRKKVEEELNNICQDILNLLTKKLIPNTSESESKVFYYKMKGDYYRYISEFSCDEGKKEASNCAQEAYQKATDIAENELPSTHPIRLGLALNYSVFFYEILNQPHQACEMAKRAFDDAITEFDNVSEDSYKDSTLIMQLLRDNLTLWTSDLQGDQTEEKSKDEGLE
B2: ALBA4 (protein, UniProt A0A5K1K8Y8 1-372)
chain: MENDKKHNQKQNNVDENEFPNSKVLLVSVKRTRRFLERTARELLAGGTRYIILSGLGDALPLCVQLQSSLQSKNAANVVKIETSYSYFNSNYSYTPGLKIYMEKHPEFKGSRISPGYVSFHEKTDSFTPIYDENPNEYICSLNAGDNNLYVGGEGINGAFSELLSSHNQEVDKYESLFKELLTKAVNENGEKPDEEVKSVLYDNVDKKYPDVKLALCRIRNSLKKGSDHSTGSVFIVTFKKNFPHKKEKNMGMVYVVGPKGKNYNSVEEFLDEVQETAENLMTTLCDYNGLVKREEIKHVRMNTCRICLFSGSIFKHPNASKLDVAKAILNGLAVGYRHGPSPRLNFAYDENVFKDAWVETTGLQVFNHNEQ
B3: ALBA1 (protein, UniProt Q8IAX8 1-248)
chain: MKKDREPIDEDEMRITSTGRMTNYVNYGAKILGDEDKKSIKIKATGNAIGKAVTLAEIIKRRFKGLHQITRCGSTVITDQYVSGQDNSEHVVQEKTVSFIEILLSREQLDMKDAGYQPPLDEKYVKEMTPEEIVNSRPFRRGGFRPRFYRGFRGGRGGFLRRGGYRGFGDRVYEPRSSFRGGRGSGYGGNFGRGGYRSGGGMGGGFRGGFRGGFRGGRDGGYRGGNRGGSRSGFRGGRGGFRGGRALS
B4: ALBA3 (protein, UniProt Q8IJX8 1-107)
chain: MASTEEVSQERSENSIQVSMTKKPTFYARIGKRMFTGNEEKNPFDEVIITGLGNATKIAIGAASIMEKEDIGQIVKVQTAYFSSDRINRRIPKITIVLKKHPDFVAN
B5: NOC3 (nucleolar complex-associated protein 3) domain-containing protein PF3D7_1466800 (protein, UniProt Q8IKG9 1-902)
chain: MDFKKNNNKNKGNEKDKDQGGQPYEMRTRTFNQDVTLRLNRENFSLPKIQRNGSLKYDEGREIFEGENTDDDTKLSKKKQKEVLNLKKLLENMEKYNDFNKKSNQGTKNALDEEMKRISSMMDYYKDLKSMIAAISSSIMGDPNTQVEKLELLFFIFYESLKRKREILYIKLNNNLYELRRMDAEIKHEDENVKYMNEKNQESHDEYNEEAVKKNFRYISNLNILSCISICTILKSITPSYKIIMSEEKNEENDNNDNASRGNNNMHTNNKPGNPTKNFSKLIENVNKVEKLIVKFFRRFCRLLKENISTNPIVFVNLLCELVGVNLYLSREENLLQYLIIYGNLAVYSNKKYNCNMHILGNVNEIKNKKKFKILCAKCVVTIKEIIGNDSNLLFTLNLVDNFSNILFNNEKNISLNLLKVFSNINIKEKKANARTYANDSTNIHGDNNTDLNAKMNIGGDIKVVDVHAEKILERLFVIYLCVLKEYEKHPPKILKYSLRAISRYSMYINKFIMDDILFEIKNLAAIKTVSSTIRIICIVVYLEIYNKMNDTIYVDCSWVGNIILELLDLSYIPNSTNSSSTNKGTRGNNNNGNKKSSNDSDAESFNSDLYNSMKNDAYKYSTDSDDIERRLTKGIENEKQLYHKYKYSVKIIKSVDLLLKTKSFTINYTNFKSSNSDLLYKIIYQLFNIMVHMDFEVGIFILQFINSIFSKYPLIRCICEEEGIVVSFMDEDLSVFFHNILLHSSFFKELSCEALNISMNNSNEEYKKIVEKFIKEQEDNEIEHKIIKFSLDVNDEDILNQARFMSYDPNGSIISDKKKYEENKKNVENIIKLDKKFKKVLYEHRRKPKNPVNTSSNTNDSTNNESSYELTVKDLIYVTYSKYDDLIKCFEKKHKKDATKN

The binders below were run against PfRNF1-GFP-BirA fusion protein (P. falciparum) (UniProt O97260) (assay: proximity labelling; BioID-MS: Percoll-enriched immature gametocytes of line PfRNF1-pffnpa-GFP-BirA (control WT NF54) treated with 50 µM biotin for 24 h; streptavidin-purified proteins, LC-MS with label-free quantification; at least two-fold enrichment over controls in three biological replicates, FDR 0.01).

binding | Binder
binds | B1
binds | B2
binds | B3
binds | B4
binds | B5
